Reference: publication PMC7140707
Results are given in words; binding and its absence hold for the method and conditions named. Binding seen in cells or lysates may run through a third protein. These calls come from enrichment with a bait or labelling near it, and not all partners need be listed. Tags and fused reporters may be left off the sequences shown.

T1: His6-Gis1 (yeast (S. cerevisiae)) (UniProt Q03833)
T1 sequence: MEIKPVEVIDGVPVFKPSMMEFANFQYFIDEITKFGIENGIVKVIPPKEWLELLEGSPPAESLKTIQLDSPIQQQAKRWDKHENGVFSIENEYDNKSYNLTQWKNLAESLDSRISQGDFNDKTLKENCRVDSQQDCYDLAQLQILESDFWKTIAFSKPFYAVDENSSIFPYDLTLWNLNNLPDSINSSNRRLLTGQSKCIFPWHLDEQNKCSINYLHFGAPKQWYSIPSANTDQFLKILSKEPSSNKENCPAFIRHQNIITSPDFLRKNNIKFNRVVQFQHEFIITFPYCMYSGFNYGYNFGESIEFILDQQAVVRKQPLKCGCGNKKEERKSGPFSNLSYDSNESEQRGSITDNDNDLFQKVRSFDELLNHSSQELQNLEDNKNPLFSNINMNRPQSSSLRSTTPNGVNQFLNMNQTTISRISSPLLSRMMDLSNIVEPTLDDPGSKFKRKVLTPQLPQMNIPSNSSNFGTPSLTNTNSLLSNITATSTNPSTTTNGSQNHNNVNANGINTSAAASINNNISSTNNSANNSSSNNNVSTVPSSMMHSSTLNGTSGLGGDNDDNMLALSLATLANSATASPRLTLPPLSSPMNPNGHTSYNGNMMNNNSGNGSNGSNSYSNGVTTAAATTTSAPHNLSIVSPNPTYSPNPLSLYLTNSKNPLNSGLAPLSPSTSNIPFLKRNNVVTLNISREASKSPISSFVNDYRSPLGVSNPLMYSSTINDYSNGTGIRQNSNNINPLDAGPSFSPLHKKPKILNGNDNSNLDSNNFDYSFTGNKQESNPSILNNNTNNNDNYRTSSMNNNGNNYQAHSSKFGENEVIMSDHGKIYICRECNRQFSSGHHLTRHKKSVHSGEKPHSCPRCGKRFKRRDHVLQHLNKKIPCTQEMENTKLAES


biological target: T1, His6-Gis1 (yeast (S. cerevisiae)); assay: affinity purification with mass spectrometry; His6-Gis1 pre-bound to a Ni Sepharose 6 Fast Flow column; crude yeast extract (Δgis1 cells grown in air or under hypoxia, Δgis1Δhem1 cells at intermediate or high ALA) loaded, 4 °C, 2 h; eluted complexes separated by SDS-PAGE, bands excised, MS; only the target purified

Row | Binder | binding
1 | ATG18 (protein, UniProt P43601 1-500) MSDSSPTINFINFNQTGTCISLGTSKGFKIFNCEPFGKFYSEDSGGYAIVEMLFSTSLLALVGIGDQPALSPRRLRIINTKKHSIICEVTFPTSILSVKMNKSRLVVLLQEQIYIYDINTMRLLHTIETNPNPRGLMAMSPSVANSYLVYPSPPKVINSEIKAHATTNNITLSVGGNTETSFKRDQQDAGHSDISDLDQYSSFTKRDDADPTSSNGGNSSIIKNGDVIVFNLETLQPTMVIEAHKGEIAAMAISFDGTLMATASDKGTIIRVFDIETGDKIYQFRRGTYATRIYSISFSEDSQYLAVTGSSKTVHIFKLGHSMSNNKLDSDDSNMEEAAADDSSLDTTSIDALSDEENPTRLAREPYVDASRKTMGRMIRYSSQKLSRRAARTLGQIFPIKVTSLLESSRHFASLKLPVETNSHVMTISSIGSPIDIDTSEYPELFETGNSASTESYHEPVMKMVPIRVVSSDGYLYNFVMDPERGGDCLILSQYSILMD | binds
2 | AYR1 (protein, UniProt P40471 1-297) MSELQSQPKKIAVVTGASGGIGYEVTKELARNGYLVYACARRLEPMAQLAIQFGNDSIKPYKLDISKPEEIVTFSGFLRANLPDGKLDLLYNNAGQSCTFPALDATDAAVEQCFKVNVFGHINMCRELSEFLIKAKGTIVFTGSLAGVVSFPFGSIYSASKAAIHQYARGLHLEMKPFNVRVINAITGGVATDIADKRPLPETSIYNFPEGREAFNSRKTMAKDNKPMPADAYAKQLVKDILSTSDPVDVYRGTFANIMRFVMIFVPYWLLEKGLSKKFKLDKVNNALKSKQKNKDD | binds
3 | BOI1 (protein, UniProt P38041 1-980) MSLEGNTLGKGAKSFPLYIAVNQYSKRMEDELNMKPGDKIKVITDDGEYNDGWYYGRNLRTKEEGLYPAVFTKRIAIEKPENLHKSPTQESGNSGVKYGNLNDSASNIGKVSSHQQENRYTSLKSTMSDIDKALEELRSGSVEQEVSKSPTRVPEVSTPQLQDEQTLIQEKTRNEENTTHDSLFSSTADLNLSSESLKNISKSNISTKSLEPSSESVRQLDLKMAKSWSPEEVTDYFSLVGFDQSTCNKFKEHQVSGKILLELELEHLKELEINSFGIRFQIFKEIRNIKSAIDSSSNKLDADYSTFAFENQAAQLMPAATVNRDEIQQQISSKCNKLSSESSDRKSSSVTTELQRPSSVVVNPNFKLHDPAEQILDMTEVPNLFADKDIFESPGRAPKPPSYPSPVQPPQSPSFNNRYTNNNARFPPQTTYPPKNKNPTVYSNGLIPNSSTSSDNSTGKFKFPAMNGHDSNSRKTTLTSATIPSINTVNTDESLPAISNISSNATSHHPNRNSVVYNNHKRTESGSSFVDLFNRISMLSPVKSSFDEEETKQPSKASRAVFDSARRKSSYGHSRDASLSEMKKHRRNSSILSFFSSKSQSNPTSPTKQTFTIDPAKMTSHSRSQSNSYSHARSQSYSHSRKHSLVTSPLKTSLSPINSKSNIALAHSETPTSSNNKEAVSQPSEGKHKHKHKHKSKHKHKNSSSKDGSSEEKSKKKLFSSTKESFVGSKEFKRSPSELTQKSTKSILPRSNAKKQQTSAFTEGIRSITAKESMQTADCSGWMSKKGTGAMGTWKQRFFTLHGTRLSYFTNTNDEKERGLIDITAHRVLPASDDDRLISLYAASLGKGKYCFKLVPPQPGSKKGLTFTEPRVHYFAVENKSEMKAWLSAIIKATIDIDTSVPVISSYATPTIPLSKAQTLLEEARLQTQLRDAEEEEGRDQFGWDDTQNKRNSNYPIEQDQFETSDYLESSAFEYPGGRL | binds
4 | BRE2 (protein, UniProt P43132 1-505) MKLGIIPYQEGTDIVYKNALQGQQEGKRPNLPQMEATHQIKSSVQGTSYEFVRTEDIPLNRRHFVYRPCSANPFFTILGYGCTEYPFDHSGMSVMDRSEGLSISRDGNDLVSVPDQYGWRTARSDVCIKEGMTYWEVEVIRGGNKKFADGVNNKENADDSVDEVQSGIYEKMHKQVNDTPHLRFGVCRREASLEAPVGFDVYGYGIRDISLESIHEGKLNCVLENGSPLKEGDKIGFLLSLPSIHTQIKQAKEFTKRRIFALNSHMDTMNEPWREDAENGPSRKKLKQETTNKEFQRALLEDIEYNDVVRDQIAIRYKNQLFFEATDYVKTTKPEYYSSDKRERQDYYQLEDSYLAIFQNGKYLGKAFENLKPLLPPFSELQYNEKFYLGYWQHGEARDESNDKNTTSAKKKKQQQKKKKGLILRNKYVNNNKLGYYPTISCFNGGTARIISEEDKLEYLDQIRSAYCVDGNSKVNTLDTLYKEQIAEDIVWDIIDELEQIALQQ | binds
5 | BUD5 (protein, UniProt P25300 1-642) MSPKNKYVYICVEYIYIYFAKIHKQSTLSSDTTKMFVLIDNVLAYLLEQDDLFVTARFAIQGQIVSRRVNKIHISNITDVLLQQFISHTLPYNDNIVPKKILDSMRTAVRQLLEATACVSRECPLVKRSQDIKRARKRLLSDWYRLGADANMDAVLLVVNSAWRFLAVWRPFVNSIQHATQELYQNIAHYLLHGNVNIQRVTALIQLVMGQDDLLFSMDDVLQEVFRIQLYLNKMLPHNSHKWQKPSPFDSANLLLNFRDWTTDNALLQELLLSYPTINKNKHKNHSVPRLIQIWVESYWQDSETTLKDILNFWYSHLAEYYEYQELFADIVQLFINKKRTRQLKIHYIGLTDKEIEENKPPLDYENLFLQYEIDKTNANDELCGATDLSDLLFQWKQGELLEVEAFALNVSPWSLAKTLTLLESSLYLDIETIEFTRHFKHNDTTIDSVFTLSNQLSSYVLETTLQQTHTISYWLQVALSCLYLRNLNSLASIITSLQNHSIERLSLPIDVKSDHLFQRLKVVVHPNNNYNVYRRTIKHIFHSQLPCVPFTSLLIRDITFIRDGNDTFTKDGNNVNMQKFNQITKIVAFAQYLQQKQYEDIHCSNTTARSLLGAMIKVHTLYNDNKDRAYQVSIAKVPRLT | binds
6 | COA6 (protein, UniProt Q3E846 1-104) MGLFSFDGGKKESQPPNTRSQRKLCWESRDAFFQCLDKADILDAMDPKNSKSIKSHCKVENEKFEENCAHSWIKYFKEKRVIDFKREQTIKRIEQEAKQRERNQ | binds
7 | CPA1 (protein, UniProt P07258 1-411) MSSAATKATFCIQNGPSFEGISFGANKSVAGETVFTTSLVGYPESMTDPSYRGQILVFTQPLIGNYGVPSGEARDEYNLLKYFESPHIHVVGIVVAEYAYQYSHWTAVESLAQWCQREGVAAITGVDTRELVQYLREQGSSLGRITLADHDPVPYVNPMKTNLVAQVTTKKPFHVSALPGKAKANVALIDCGVKENIIRCLVKRGANVTVFPYDYRIQDVASEFDGIFLSNGPGNPELCQATISNVRELLNNPVYDCIPIFGICLGHQLLALASGASTHKLKYGNRAHNIPAMDLTTGQCHITSQNHGYAVDPETLPKDQWKPYFVNLNDKSNEGMIHLQRPIFSTQFHPEAKGGPLDTAILFDKFFDNIEKYQLQSQAKSSISLKVTYSTDKSRLQSINVTKLAKERVLF | binds
8 | ERG26 (protein, UniProt P53199 1-349) MSKIDSVLIIGGSGFLGLHLIQQFFDINPKPDIHIFDVRDLPEKLSKQFTFNVDDIKFHKGDLTSPDDMENAINESKANVVVHCASPMHGQNPDIYDIVNVKGTRNVIDMCKKCGVNILVYTSSAGVIFNGQDVHNADETWPIPEVPMDAYNETKAIAEDMVLKANDPSSDFYTVALRPAGIFGPGDRQLVPGLRQVAKLGQSKFQIGDNNNLFDWTYAGNVADAHVLAAQKLLDPKTRTAVSGETFFITNDTPTYFWALARTVWKADGHIDKHVIVLKRPVAICAGYLSEWVSKMLGKEPGLTPFRVKIVCAYRYHNIAKAKKLLGYTPRVGIEEGINKTLAWMDEGL | binds
9 | ERV41 (protein, UniProt Q04651 1-352) MAGLKTFDAFPKTEEQYKKKSTKGGLTSLLTYLFLLFIAWTEFGEYFGGYIDQQYVVDSQVRDTVQINMDIYVNTKCDWLQINVRDQTMDRKLVLEELQLEEMPFFIPYDTKVNDINEIITPELDEILGEAIPAEFREKLDTRSFFDESDPNKAHLPEFNGCHVFGSIPVNRVSGELQITAKSLGYVASRKAPLEELKFNHVINEFSFGDFYPYIDNPLDNTAQFNQDEPLTTYVYYTSVVPTLFKKLGAEVDTNQYSVNDYRYLYKDVAAKGDKMPGIFFKYNFEPLSIVVSDVRLSFIQFLVRLVAICSFLVYCASWIFTLLDMALITIMGPKWSLRYQPDDKTKGILDR | binds
10 | GIS2 (protein, UniProt P53849 1-153) MSQKACYVCGKIGHLAEDCDSERLCYNCNKPGHVQTDCTMPRTVEFKQCYNCGETGHVRSECTVQRCFNCNQTGHISRECPEPKKTSRFSKVSCYKCGGPNHMAKDCMKEDGISGLKCYTCGQAGHMSRDCQNDRLCYNCNETGHISKDCPKA | binds
11 | GVP36 (protein, UniProt P40531 1-326) MSFNAFASSLSKKLQEISTSVSEKTQELPSLAQSTQRMVQERLGQVTDISQLPREYTELEDKVDTIKLIYNHFLGVTAIYENGSYDYPKYINESVNEFSRSVASKLTELTHATSASEAQNILVAPGPIKEPKTLNYALSKVALNSSECLNKMFPTEEQPLASALLQFSDVQAKIAQARIQQDTLIQTKFNKNLRERLSFEIGKADKCRKDVHSMRLRYDVARTNLANNKKPEKEASLRVQMETLEDQFAQVTEDATVCLQEVISHANFSEDLKELAKAQAEYFETSAGLMKEFLSNSFAEEPEAKPEVAEEEKPQTAISMNDEDDA | binds
